Test results taken from the supplement of paper PMC8728848.
The list shows a part of the results.

Experiments:
Assay in all cases: glycan array binding signal (z-score within array); higher = stronger binding
Conditions in all cases: glycan notation: IUPAC condensed, linker removed
Fuc(a1-2)Gal = molecular target: Fuc(a1-2)Gal
Outline: (§1)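 The Consortium for Functional Glycomics database supplied 3228 glycan arrays, of which those lacking an available protein sequence were dropped. The binding signal, a within-array Z-score, was averaged across arrays of the same protein sequence and across linkers. Negative scores can be read as non-binding.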

Fuc(a1-2)Gal(b1-3)GalNAc = molecular target: Fuc(a1-2)Gal(b1-3)GalNAc
Outline: as §1

[1] = molecular target: Fuc(a1-2)Gal(b1-3)GalNAc(a1-3)[Fuc(a1-2)]Gal(b1-4)Glc
Outline: as §1

[2] = molecular target: Fuc(a1-2)Gal(b1-3)GalNAc(a1-3)[Fuc(a1-2)]Gal(b1-4)GlcNAc
Outline: as §1

[3] = molecular target: Fuc(a1-2)Gal(b1-3)GalNAc(b1-3)Gal
Outline: as §1

[4] = molecular target: Fuc(a1-2)Gal(b1-3)GalNAc(b1-3)Gal(a1-4)Gal(b1-4)Glc
Outline: as §1

[5] = molecular target: Fuc(a1-2)Gal(b1-3)GalNAc(b1-4)[Neu5Ac(a2-3)]Gal(b1-4)Glc
Outline: as §1

Fuc(a1-2)Gal(b1-3)GlcNAc = molecular target: Fuc(a1-2)Gal(b1-3)GlcNAc
Outline: as §1

[6] = molecular target: Fuc(a1-2)Gal(b1-3)GlcNAc(b1-2)Man(a1-3)[Fuc(a1-2)Gal(b1-3)GlcNAc(b1-2)Man(a1-6)]Man(b1-4)GlcNAc(b1-4)GlcNAc
Outline: as §1

[7] = molecular target: Fuc(a1-2)Gal(b1-3)GlcNAc(b1-2)Man(a1-3)[Fuc(a1-2)Gal(b1-3)GlcNAc(b1-2)Man(a1-6)]Man(b1-4)GlcNAc(b1-4)[Fuc(a1-6)]GlcNAc
Outline: as §1

[8] = molecular target: Fuc(a1-2)Gal(b1-3)GlcNAc(b1-3)Gal(b1-4)Glc
Outline: as §1

[9] = molecular target: Fuc(a1-2)Gal(b1-3)GlcNAc(b1-3)GalNAc
Outline: as §1

[10] = molecular target: Fuc(a1-2)Gal(b1-3)GlcNAc(b1-3)[Fuc(a1-2)Gal(b1-3)GlcNAc(b1-6)]GalNAc
Outline: as §1

[11] = molecular target: Fuc(a1-2)Gal(b1-3)GlcNAc(b1-3)[Gal(b1-4)GlcNAc(b1-6)]Gal(b1-4)Glc
Outline: as §1

[12] = molecular target: Fuc(a1-2)Gal(b1-3)GlcNAc(b1-3)[Neu5Ac(a2-6)Gal(b1-4)GlcNAc(b1-6)]Gal(b1-4)Glc
Outline: as §1

[13] = molecular target: Fuc(a1-2)Gal(b1-3)GlcNAc6S
Outline: as §1

[14] = molecular target: Fuc(a1-2)Gal(b1-3)[Fuc(a1-4)]GlcNAc
Outline: as §1

[15] = molecular target: Fuc(a1-2)Gal(b1-3)[Fuc(a1-4)]GlcNAc(b1-2)Man(a1-3)[Fuc(a1-2)Gal(b1-3)[Fuc(a1-4)]GlcNAc(b1-2)Man(a1-3)]Man(b1-4)GlcNAc(b1-4)GlcNAc
Outline: as §1

[16] = molecular target: Fuc(a1-2)Gal(b1-3)[Fuc(a1-4)]GlcNAc(b1-2)Man(a1-3)[Fuc(a1-2)Gal(b1-3)[Fuc(a1-4)]GlcNAc(b1-2)Man(a1-6)]Man(b1-4)GlcNAc(b1-4)[Fuc(a1-6)]GlcNAc(b1-4)[Fuc(a1-6)]GlcNAc
Outline: as §1

[17] = molecular target: Fuc(a1-2)Gal(b1-3)[Fuc(a1-4)]GlcNAc(b1-3)[Fuc(a1-3)[Gal(b1-4)]GlcNAc(b1-6)]Gal(b1-4)Glc
Outline: as §1

[18] = molecular target: Fuc(a1-2)Gal(b1-3)[Fuc(a1-4)]GlcNAc(b1-3)[Gal(b1-4)GlcNAc(b1-6)]Gal(b1-4)Glc
Outline: as §1

[19] = molecular target: Fuc(a1-2)Gal(b1-4)Fuc(a1-3)]GlcNAc(b1-2)Man(a1-3)[Fuc(a1-2)Gal(b1-4)[Fuc(a1-3)]GlcNAc(b1-2)Man(a1-6)]Man(b1-4)GlcNAc(b1-4)GlcNAc
Outline: as §1

Fuc(a1-2)Gal(b1-4)Glc = molecular target: Fuc(a1-2)Gal(b1-4)Glc
Outline: as §1

Fuc(a1-2)Gal(b1-4)Glc6S = molecular target: Fuc(a1-2)Gal(b1-4)Glc6S
Outline: as §1

Fuc(a1-2)Gal(b1-4)GlcNAc = molecular target: Fuc(a1-2)Gal(b1-4)GlcNAc
Outline: as §1

[20] = molecular target: Fuc(a1-2)Gal(b1-4)GlcNAc(b1-2)Man
Outline: as §1

[21] = molecular target: Fuc(a1-2)Gal(b1-4)GlcNAc(b1-2)Man(a1-3)[Fuc(a1-2)Gal(b1-4)GlcNAc(b1-2)Man(a1-6)]Man(b1-4)GlcNAc(b1-4)GlcNAc
Outline: as §1

[22] = molecular target: Fuc(a1-2)Gal(b1-4)GlcNAc(b1-2)Man(a1-3)[Fuc(a1-2)Gal(b1-4)GlcNAc(b1-2)Man(a1-6)]Man(b1-4)GlcNAc(b1-4)[Fuc(a1-6)]GlcNAc
Outline: as §1

[23] = molecular target: Fuc(a1-2)Gal(b1-4)GlcNAc(b1-2)[Fuc(a1-2)Gal(b1-4)GlcNAc(b1-4)]Man(a1-3)[Fuc(a1-2)Gal(b1-4)GlcNAc(b1-2)Man(a1-6)]Man(b1-4)GlcNAc(b1-4)GlcNAc
Outline: as §1

[24] = molecular target: Fuc(a1-2)Gal(b1-4)GlcNAc(b1-3)Gal(b1-4)GlcNAc
Outline: as §1

B1: XTP3-B-MRH2 (Homo sapiens), Q96DZ1 (protein)
chain: EFLSGSYCFRGGVGWWKYEFCYGKHVHQYHEDKDSGKTSVVVGTWNQEEHIEWAKKNTARAYHLQDDGTQTVRMVSHFYGNGDICDITDKPRQVTVKLKCKESDSPHAVTVYMLEPHSCQYILGVESPVICKILDTA
- glycan array binding signal (z-score) (Fuc(a1-2)Gal): -0.773
- glycan array binding signal (z-score) (Fuc(a1-2)Gal(b1-3)GalNAc): 0.161
- glycan array binding signal (z-score) [1]: -0.747
- glycan array binding signal (z-score) [2]: -1.33
- glycan array binding signal (z-score) [3]: 0.18
- glycan array binding signal (z-score) [4]: -0.27
- glycan array binding signal (z-score) [5]: -0.108
- glycan array binding signal (z-score) (Fuc(a1-2)Gal(b1-3)GlcNAc): 0.412
- glycan array binding signal (z-score) [6]: -0.458
- glycan array binding signal (z-score) [7]: -1.21
- glycan array binding signal (z-score) [8]: -0.618
- glycan array binding signal (z-score) [9]: 0.231
- glycan array binding signal (z-score) [10]: 1.04
- glycan array binding signal (z-score) [11]: -1.06
- glycan array binding signal (z-score) [12]: -1.29
- glycan array binding signal (z-score) [13]: -0.383
- glycan array binding signal (z-score) [14]: -1.05
- glycan array binding signal (z-score) [15]: -0.445
- glycan array binding signal (z-score) [16]: -0.47
- glycan array binding signal (z-score) [17]: 2.32
- glycan array binding signal (z-score) [18]: 0.411
- glycan array binding signal (z-score) [19]: 2.2
- glycan array binding signal (z-score) (Fuc(a1-2)Gal(b1-4)Glc): -0.632
- glycan array binding signal (z-score) (Fuc(a1-2)Gal(b1-4)Glc6S): -0.426
- glycan array binding signal (z-score) (Fuc(a1-2)Gal(b1-4)GlcNAc): -1.08
- glycan array binding signal (z-score) [20]: 0.696
- glycan array binding signal (z-score) [21]: 1.67
- glycan array binding signal (z-score) [22]: -0.189
- glycan array binding signal (z-score) [23]: -0.58
- glycan array binding signal (z-score) [24]: -0.134
